# Experimental data: PubChem BioAssay AID1159578 (Peter MacCallum Cancer Centre, 2015)
# Aim: 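Knock-downs that alter how fast lymphatic endothelial cells migrate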 (primary screen)
# Cells: human lymphatic endothelial cells
# Reagent: siRNA pool against human genes, 40 nM
# Timing: 48 h after transfection
# Measured: 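High-content imaging of dye-stained cells in a scratch assay measures filled wound area and nuclei per well; duplicate means given as ratio to mock and robust z-score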
# Reading the numbers: migration robust z-score: higher = faster migration into the scratch; migration relative to mock: higher = more scratch area covered than mock; nuclei per well: higher = more cells in the well
# Active means: 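Migration changed when robust z exceeds 2 or falls below -2 and mean nuclei number is at least 3300; otherwise not called changed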
# Meaning of the calls: active = migration changed; inactive = no migration change, or too few cells
# Here is an unselected part of about 18,000 reagents. In the full data, about 1,030 (5.7%) were called active. 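Inactive calls also include pools with fewer than 3300 nuclei, whose migration was not assessed.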 Raw values vary from plate to plate and are shown uncorrected.
gene knocked down,migration robust z-score,migration class with cell-count check,migration relative to mock,"nuclei per well, duplicate mean",outcome
PRMT5,0.05,migration z between -2 and 2; enough cells,0.82,6492,inactive
GIPR,1.29,migration z between -2 and 2; enough cells,1.06,5426,inactive
NUF2,-2.34,migration z below -2; enough cells,0.29,5180,active
LRRC39,0.3,migration z between -2 and 2; enough cells,0.97,5847,inactive
POLM,-0.62,migration z between -2 and 2; enough cells,0.68,5022,inactive
MOB3B,-0.23,migration z between -2 and 2; enough cells,0.83,4622,inactive
COX7A1,0.65,migration z between -2 and 2; enough cells,1.06,5818,inactive
PARD6B,-0.85,migration z between -2 and 2; enough cells,0.66,4486,inactive
ZIM3,0,migration z between -2 and 2; enough cells,0.89,6208,inactive
NOG,-0.97,migration z between -2 and 2; enough cells,0.64,4586,inactive
YWHAQ,1.35,migration z between -2 and 2; enough cells,1.07,5892,inactive
YEATS2,-0.45,migration z between -2 and 2; enough cells,0.77,5695,inactive
TRIM6-TRIM34,-0.02,migration z between -2 and 2; enough cells,0.8,6230,inactive
ZNF76,-2.49,migration z below -2; enough cells,0.24,5260,active
TUBE1,0.57,migration z between -2 and 2; enough cells,0.92,6695,inactive
MYCBP2,0.86,migration z between -2 and 2; enough cells,0.97,4752,inactive
GRIN1,-0.9,migration z between -2 and 2; enough cells,0.63,5753,inactive
GBP3,-1.17,under 3300 nuclei; migration not judged,0.58,3238,inactive
ARRDC2,-1.48,migration z between -2 and 2; enough cells,0.5,5234,inactive
CPVL,0.83,migration z between -2 and 2; enough cells,0.96,5360,inactive
ZNF654,3,migration z above 2; enough cells,1.66,5545,active
C1orf56,-0.4,migration z between -2 and 2; enough cells,0.78,6600,inactive
TEX14,-1.5,under 3300 nuclei; migration not judged,0.52,2491,inactive
TBC1D25,2.27,migration z above 2; enough cells,1.48,5234,active
GRID1,0.6,migration z between -2 and 2; enough cells,0.92,5522,inactive
PLEKHH2,0.35,migration z between -2 and 2; enough cells,0.98,6214,inactive
HUS1B,-1.2,migration z between -2 and 2; enough cells,0.57,4642,inactive
DEFB136,-0.37,migration z between -2 and 2; enough cells,0.79,5083,inactive
EVX2,-2.82,migration z below -2; enough cells,0.17,4508,active
MSANTD3,-0.24,migration z between -2 and 2; enough cells,0.82,6274,inactive
RIBC1,0.48,migration z between -2 and 2; enough cells,1,4242,inactive
PSMC2,-0.94,migration z between -2 and 2; enough cells,0.62,6204,inactive
B4GALNT3,0.94,migration z between -2 and 2; enough cells,0.98,6600,inactive
LEPROTL1,-1.67,migration z between -2 and 2; enough cells,0.45,5528,inactive
TMEM156,-0.22,migration z between -2 and 2; enough cells,0.83,6984,inactive
CEP19,1.54,migration z between -2 and 2; enough cells,1.29,6108,inactive
ARHGEF1,1.2,migration z between -2 and 2; enough cells,1.2,5007,inactive
EFNA2,0.88,migration z between -2 and 2; enough cells,0.98,4892,inactive
MAN2A2,1.53,migration z between -2 and 2; enough cells,1.1,5561,inactive
ABRAXAS1,-1.81,migration z between -2 and 2; enough cells,0.42,7179,inactive
OMD,0.09,migration z between -2 and 2; enough cells,0.91,5623,inactive
TPT1P8,1.96,migration z between -2 and 2; enough cells,1.39,6740,inactive
XIRP1,1.08,migration z between -2 and 2; enough cells,1.17,5776,inactive
CD302,0.36,migration z between -2 and 2; enough cells,0.98,6656,inactive
TGM4,-0.16,migration z between -2 and 2; enough cells,0.78,5918,inactive
NPB,0.26,migration z between -2 and 2; enough cells,0.96,6757,inactive
QPCT,0.83,migration z between -2 and 2; enough cells,0.96,7988,inactive
THUMPD3,1.34,migration z between -2 and 2; enough cells,1.23,5904,inactive
FBXL12,-1.48,under 3300 nuclei; migration not judged,0.52,3165,inactive
JPT2,-0.94,migration z between -2 and 2; enough cells,0.64,5734,inactive
KLHL7,1.4,migration z between -2 and 2; enough cells,1.25,6178,inactive
RAD51C,-0.06,migration z between -2 and 2; enough cells,0.87,7421,inactive
E2F5,0.36,migration z between -2 and 2; enough cells,0.88,5876,inactive
SNED1,-0.18,migration z between -2 and 2; enough cells,0.83,6260,inactive
ZNF468,0.19,migration z between -2 and 2; enough cells,0.94,5717,inactive
EPB41L3,2.25,migration z above 2; enough cells,1.47,7622,active
PSAPL1,-0.77,migration z between -2 and 2; enough cells,0.68,6398,inactive

9 entries from above, set out differently.
NPB — migration robust z-score: 0.26; migration class with cell-count check: migration z between -2 and 2; enough cells; migration relative to mock: 0.96; nuclei per well, duplicate mean: 6757; outcome: inactive
QPCT — migration robust z-score: 0.83; migration class with cell-count check: migration z between -2 and 2; enough cells; migration relative to mock: 0.96; nuclei per well, duplicate mean: 7988; outcome: inactive
THUMPD3 — migration robust z-score: 1.34; migration class with cell-count check: migration z between -2 and 2; enough cells; migration relative to mock: 1.23; nuclei per well, duplicate mean: 5904; outcome: inactive
FBXL12 — migration robust z-score: -1.48; migration class with cell-count check: under 3300 nuclei; migration not judged; migration relative to mock: 0.52; nuclei per well, duplicate mean: 3165; outcome: inactive
JPT2 — migration robust z-score: -0.94; migration class with cell-count check: migration z between -2 and 2; enough cells; migration relative to mock: 0.64; nuclei per well, duplicate mean: 5734; outcome: inactive
KLHL7 — migration robust z-score: 1.4; migration class with cell-count check: migration z between -2 and 2; enough cells; migration relative to mock: 1.25; nuclei per well, duplicate mean: 6178; outcome: inactive
RAD51C — migration robust z-score: -0.06; migration class with cell-count check: migration z between -2 and 2; enough cells; migration relative to mock: 0.87; nuclei per well, duplicate mean: 7421; outcome: inactive
E2F5 — migration robust z-score: 0.36; migration class with cell-count check: migration z between -2 and 2; enough cells; migration relative to mock: 0.88; nuclei per well, duplicate mean: 5876; outcome: inactive
SNED1 — migration robust z-score: -0.18; migration class with cell-count check: migration z between -2 and 2; enough cells; migration relative to mock: 0.83; nuclei per well, duplicate mean: 6260; outcome: inactive
